From patent US20240317708A1, “INHIBITORS OF TRANSGLUTAMINASES” (ZEDIRA GMBH, priority 2021, published 2024)
For at least one compound, name, drawing or mass did not settle the structure.

Key:
Caco-2 barrier = assay: Caco-2 permeability assay (CacoReady kit); type: in vitro ADME
Experimental: Permeability coefficients (Papp values) were obtained from Caco-2 barrier studies predicting oral/intestinal bioavailability of the tested compounds. The assays were performed by using CacoReady™ ready-to-use kits from ReadyCell according to the manufacturers protocol.

[1] = Log D shake flask method (octanol / PBS pH 7.4, HPLC); type: physicochemical; settings: octanol / PBS pH 7.4, shake flask
Experimental: In order to classify the inventive compounds according to their lipophilicity, Log D values (distribution coefficient) were determined by means of the well-established shake flask method, measuring the partition of a compound between an octanol and phosphate-buffered saline (PBS, pH 7.4) by HPLC.

[2] = molecular target: T1, recombinant human transglutaminase 2 (Homo sapiens, UniProt P21980); assay: Transglutaminase assay (dansylcadaverine incorporation into dimethylcasein, DCC-assay); type: biochemical
T1 construct: purchased Zedira T022
T1 sequence (P21980 1-687): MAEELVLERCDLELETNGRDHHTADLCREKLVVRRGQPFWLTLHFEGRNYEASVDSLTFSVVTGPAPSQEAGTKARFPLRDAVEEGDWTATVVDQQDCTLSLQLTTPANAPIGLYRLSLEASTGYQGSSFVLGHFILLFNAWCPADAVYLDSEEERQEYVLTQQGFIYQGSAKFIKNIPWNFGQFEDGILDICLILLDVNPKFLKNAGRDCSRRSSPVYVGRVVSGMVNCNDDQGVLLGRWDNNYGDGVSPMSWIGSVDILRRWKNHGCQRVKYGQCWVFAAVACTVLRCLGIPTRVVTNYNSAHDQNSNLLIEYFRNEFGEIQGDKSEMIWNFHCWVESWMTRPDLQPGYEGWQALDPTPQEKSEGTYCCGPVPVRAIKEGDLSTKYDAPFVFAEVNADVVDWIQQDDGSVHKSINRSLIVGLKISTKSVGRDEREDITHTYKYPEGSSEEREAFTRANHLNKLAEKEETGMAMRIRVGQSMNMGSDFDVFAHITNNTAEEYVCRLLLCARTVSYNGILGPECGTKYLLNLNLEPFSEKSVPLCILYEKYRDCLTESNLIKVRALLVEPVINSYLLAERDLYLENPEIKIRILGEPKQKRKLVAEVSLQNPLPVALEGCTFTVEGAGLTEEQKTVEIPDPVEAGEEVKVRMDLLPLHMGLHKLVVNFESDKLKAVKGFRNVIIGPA
Experimental: For the determination of potency of inhibitors against tissue transglutaminase, the incorporation of dansylcadaverine into dimethylcasein (Zedira product T036, Lorand et al., Anal Biochem, 1971, 44:221-31) was measured using recombinant human transglutaminase 2 (Zedira Product T022).
The tissue transglutaminase is diluted in buffer (50 mM Tris-HCl, 7.5 mM CaCl2, 150 mM NaCl, pH=7.4). The final concentration of TG2 in the assay is 10 nM.
A 10 mM inhibitor stock solution is prepared in DMSO, and from this a serial 1:2-fold dilution series is prepared also in DMSO. Each of the initial dilutions is subsequently diluted 1:50-fold with buffer (50 mM Tris-HCl, 7.5 mM CaCl2, 150 mM NaCl, pH=7.4) to yield the final working dilutions containing 2% (v/v) DMSO.
15 μl of inhibitor working dilution are added per well of a 96 well microtiter plate. As control, 15 μl of a 2% (v/v) DMSO solution prepared using the buffer mentioned above are added per well.
Immediately before starting the assay, 600 μl transglutaminase working solution are added to 11.4 ml assay buffer (50 mM Tris-HCl, 10 mM CaCl2, 10 mM glutathione, 2.5% glycerol, 16.7 μM dansylcadaverine, 4 μM N,N-dimethylcasein, 200 mM NaCl, pH=8.0). […]
Increase in fluorescence is measured using λex=330 nm and λem=500 nm at 37° C. for 30 min. […]
Analysis of enzymatic activity is performed by calculation of the slope of an increase in fluorescence intensity. […]

CCOC(=O)/C=C/CC[C@H](NC(=O)c1cccnc1)C(=O)Nc1ccc(C)n(CC(=O)NCCc2ccccc2)c1=O [Ref. 3, reference compound]
Papp (Caco-2 barrier): A (A: Papp < 1 × 10^−6 cm/s) | logD [1]: B (B: 1 ≤ logD < 3) | IC50 ([2]; measured in the DCC-assay): 4,268 nM | IC50 TG2 ([2]; recombinant human TG2 10 nM, dansylcadaverine/dimethylcasein, 37° C.): D (D: 1,500 nM ≤ IC50 < 10,000 nM)
